Values of other authors, collected in US20150274639A1, “METHODS OF USE FOR COMPOSITIONS COMPRISING A BIOCIDAL POLYAMINE” (Curza Global, LLC, priority 2013, published 2015).

Test system: biofilms of MRSA and P. aeruginosa
Conditions: understanding of the inventors, no own test described; cited from earlier work

CC(C)(C)CC(C)(C)c1ccc(OCCOCC[N+](C)(C)Cc2ccccc2)cc1 [benzethonium chloride]
biofilm dispersal effect (comparison antimicrobials): not seen
